Assay results

Data taken from PubChem BioAssay AID1159506, deposited by NCATS (2015).

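Genome-wide siRNA knockdown in TC32 Ewing sarcoma cells, comparing luciferase light from an NR0B1-promoter reporter with a CMV-promoter reporter 48 hours after transfection. Each siRNA was applied at 20 nM. A z-score of the log NR0B1-over-CMV signal, less the median of siRNAs with the same seed; more negative means a stronger specific loss of the NR0B1 reporter.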

This is part of the screen; most of the strongest results are not listed here. Sequences are the guide (antisense) strand, without overhang.

siRNA	gene	seed-corrected z-score
UCAACUAAUAAUUCUAAGC	LRRC43	0.4172
UAGAUGAACACUACAGACU	TWF2	-0.3713
UAUCGAUAGAGAGAACAGG	CHAMP1	-0.3525
UAGGGUCCGAUAUCUUUGG	PI4K2A	-1.389
UGAAGGUUUUGGUAUUCGC	MSANTD2	-0.3627
UAUUACUUGAAUAAGACAC	TM4SF1	0.3668
ACUAUGAUGACAAUUGUUG	ECRP	-0.5242
UGUAGUAACCUCGACGAGC	PPIL1	0.6303
AUGAAUCCAACAACAAUCC	XKR9	0.2319
UUUGCCGCUUCAGCUGUGG	DNM1P31	-0.08272
UAUGUUAAGGUGUCUUUUU	SAP30	-0.01509
UUUCUUCCACACUUUGCUU	MACROD2	-1.143
UUUACUUCUUAGAUAGUUG	FLT3	-0.4159
AUUAGGGACAUUCAGCUGC	R3HDM2	-0.3087
AAAGCAUCAAUUGAUUAGC	SNUPN	-0.7696
ACAUUGUAGACUUUCAGCC	VANGL1	-0.4387
UACAAAGUGAGGUUCGUUG	SEMA4C	0.6954
UAGUGGAUGCUUUAUAACC	STAU2	0.8112
ACAGGUGCAUCCUUUUUGU	NTHL1	-1.388
AUCAUAAACAUGAGGAAAG	COX8C	-0.2634
UCCCGGAUAAAAUGAAGCC	PLOD2	-0.04605
UUAAGGUCCUCGAUGUAGC	SERPINB1	-0.3435
UUGUUCACCAUGUGGAUCC	CA7	0.6156
UCAUUGAUCAGAGAUGCGG	TAS2R3	0.3153
UAGCCGAUUUCCAAAAUCC	MAN1B1	-0.6285
UAGUUUGCUUAGGUCUUGC	RPF2	-0.5307
UUCAAUGCCUCGUCCAUGC	RGS7	-0.04569
UCAUGGAUUCGAGAAAACC	MMP2	-0.1262
UCUUGGAUCCUCCUUGGUG	LST1	0.7286
UCGGUUUCGAGGUUUACUC	MAP3K13	0.1543
UUGGGUUUCUCUCAAACAG	ALK	0.2443
UGCGUGUUAAAAGCUGGAG	LIPT2	0.2432
AAUCCUAUUAGAUAGAGAG	CDS2	-0.3876
UGUAGAUAGAGAAAGCUGC	RSPO4	0.1705
AAAGGGUUCCUUCCAGAUG	ALDH3B2	0.02045
AAAGUCAAACGGGUACACG	SGSH	-0.05571
UCUCAGUCGAGCAAGUUCC	ZRSR2	0.046
UAAGCUGCAAUGGAAGAGA	DHRS2	-0.2125
UUCCUUGAUAUCUCCAGUC	SQLE	0.2215
UGGAGAUUCAGGGAUGUUG	CYP4A11	-0.8061
UUCUGAUCCUUUUUGUACU	HOXA3	0.3612
UUGCCGUUCAGUAAUGAGG	EXOC3L4	-0.07166
AAUUUUAUCCAAGGCAUUC	PMF1	0.2429
UCAAUGCCCAGACUAAUGC	SLC16A6	-1.323
UCCGGUUCUGAAUCCUUGC	RNF133	0.5798
UCACUUUUUCGUUUGGAUC	ERICH2	0.5995
UUCUUUCAACUUAUCGUUC	ODF2L	1.792
UAUUUUGGCUCUUAGAGUG	RPL21P7	1.162
UCUGUGUCUGCCUCUGUCG	BATF	-1.13
UGUCAAACCGGAUAAACGC	ELAVL1	0.5105
UGUGGAUGUAUUCAUGCUC	MAPRE3	1.466
AAGGGCAACAAUAGGAACU	RENBP	-0.6023
UCUGCACCUGCUGUAAUCC	MED8	1.304
UUCGCAUUCGCAUGGGCUC	MATN4	0.02576
UGACCCAUAAAUGUCCACG	PADI3	-0.01375
GUAGCCAUGACCAUAGCCA	KRTAP6-2	0.1309
UUCCUUGAAUAGAUAAUCC	RAD18	0.5481
AGUGGUGUAAGACUUCUUC	RPS27AP5	-1.564
AAAGGGCUAACAUCUGUUG	ZNF75D	-1.551
UUCUUGUAGACGAUGGUCA	COPZ2	0.2575
UUCUCGAUUAGCCCGAUAC	E2F4	-0.6878
AUAUCUACAACCACCACCC	PCDHB12	0.3547
UUGAUGAACAGGUGCAGGU	NDRG1	0.8293
UUAGUUCUUGUUCCGGAGG	ZNF397	-0.2058
UCCGCUUUGGCUGGUGUCA	ZXDA	-0.5038
UUCAUAACCUUCUAUGACC	CCT8	-0.02979
UUUCGAAGGCUUGGAAUCC	GOLIM4	0.5301
UCAUUGUCCAGAUCCGACU	CIB4	-0.1892
AAACAUUGCAGUGAGAUGG	RPP30	0.5402
AAUCUUCGCAAAGAUGACG	EHD2	-0.08893
AAGUGAAUAGCUGUAGUCC	NDST2	0.4769
UGUUUGCGCAGUACUGUUG	CGGBP1	1.201
UAAUCGGUCUCUCAGAUAC	STT3B	0.3267
ACAGUUACAUUCACAGUGC	OTOGL	0.6799
AUCUAUUCCAGUUGGAGUC	SYNRG	0.1338
UCUACAGAAAUAGAGAGGC	OR51F1	0.02125
UAACUUCCAUUGGAACUCC	PSMD14	-1.511
AUUCAAGAGGUUAAAAUGC	CFAP46	0.001741
UUUCGAUGACCUUCAUUCC	TPM2	-0.1107
UAUUAGUACUCCGUCCUUC	TP53BP1	0.1204
UGAUUCACUGGAUACAUCC	EMSY	0.7905
UUCAUUCUCACUGACACUU	CACNG2	-0.02139
AAAAUUCCUAAGCCUAUCC	VMP1	-1.21

Once more, the final 6:

With AUUCAAGAGGUUAAAAUGC against CFAP46 the assay gave seed-corrected z-score 0.001741.
With UUUCGAUGACCUUCAUUCC against TPM2 the assay gave seed-corrected z-score -0.1107.
With UAUUAGUACUCCGUCCUUC against TP53BP1 the assay gave seed-corrected z-score 0.1204.
With UGAUUCACUGGAUACAUCC against EMSY the assay gave seed-corrected z-score 0.7905.
With UUCAUUCUCACUGACACUU against CACNG2 the assay gave seed-corrected z-score -0.02139.
With AAAAUUCCUAAGCCUAUCC against VMP1 the assay gave seed-corrected z-score -1.21.